Reference: patent US20210169980A1
These are yes or no findings as the source states them, for the method shown. Some entries that bind do so weakly or less than the wild type.

Chains of the proteins cited; added tags and fusions are not shown.
UniProt O95166: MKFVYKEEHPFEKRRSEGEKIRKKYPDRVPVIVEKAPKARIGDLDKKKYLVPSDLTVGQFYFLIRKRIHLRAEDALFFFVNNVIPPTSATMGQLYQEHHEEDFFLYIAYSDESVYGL

Target: GABARAP (human) (UniProt O95166)
Test: ITC

- binding: binds
Binder: EGDDFELLDQSELDQIESELGLTQDQ [human FAM134B LIR with the C-helix extension (LIR-L, aa 448-469)]
